These are yes or no findings as the source states them, for the method shown. Some results given as binding are weak or reduced against the parent protein; the word gives no strength.
Target: rabbit VCAM-1 on transfected CHO cells (rabbit)
Experiment: flow cytometry on CHO cells transfected with rabbit VCAM-1

B1: cAbVCAM1-5 (VHH)
VHH: QVQLQESGGGSVQTGGSLRLSCAASGYTNSIMYMAWFRQAPGKKREGVAAIRFPDDSAYYAGSVKGRFTISHDNAKNTVYLQMNNLNPEDTAMYYCAARSSPYSFAWNDPSNYNYWGQGTQVTVSS
notes: Dromedary nanobody produced with a hexahistidine tag in E. coli; also called anti-VCAM-1 nanobody; not shown: hexahistidine tag
binding: binds

From patent publication US20140255303A1 (UNIVERSITE JOSEPH FOURIER GRENOBLE 1, published 2014)
